Measured data: PubChem BioAssay AID1159578 (Peter MacCallum Cancer Centre, 2015)
This is a random part of about 18,000 reagents tested. Over the whole deposit, about 1,030 (5.7%) are marked active. 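Inactive calls also include pools with fewer than 3300 nuclei, whose migration was not assessed.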 Raw values vary from plate to plate and are shown uncorrected. A number with no mark means an inactive call. Further read-outs or replicates are left out here.

Aim: 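Knock-downs that alter how fast lymphatic endothelial cells migrate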 (primary screen)
Cell system: human lymphatic endothelial cells
Reagent: siRNA pool against human genes, 40 nM
Duration: 48 h after transfection
Detection: 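High-content imaging of dye-stained cells in a scratch assay measures filled wound area and nuclei per well; duplicate means given as ratio to mock and robust z-score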
Scale: migration robust z-score: higher = faster migration into the scratch; nuclei per well: higher = more cells in the well
Call rule: 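Migration changed when robust z exceeds 2 or falls below -2 and mean nuclei number is at least 3300; otherwise not called changed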
Calls: active = migration changed; inactive = no migration change, or too few cells

| Target gene | PubChem SID | migration robust z-score | nuclei per well, duplicate mean |
| --- | --- | --- | --- |
| IFT57 (intraflagellar transport 57) | SID255358395 | 0 | 6624 |
| RAB34 (RAB34, member RAS oncogene family) | SID255361107 | -0.35 | 4777 |
| PCBP1 (poly(rC) binding protein 1) | SID255351434 | -0.36 | 4866 |
| TREM2 (triggering receptor expressed on myeloid cells 2) | SID255357984 | -0.52 | 4344 |
| NPPC (natriuretic peptide C) | SID255351289 | 0.26 | 4945 |
| CACFD1 (calcium channel flower domain containing 1) | SID255355587 | -1.48 | 3980 |
| IDNK (IDNK gluconokinase) | SID255365868 | 0.19 | 5410 |
| CCNI2 (cyclin I family member 2) | SID255366103 | -0.32 | 5257 |
| SPATA8 (spermatogenesis associated 8) | SID255363264 | 0.84 | 6313 |
| ARL4D (ARF like GTPase 4D) | SID255348380 | 1.12 | 4958 |
| SEC22C (SEC22 homolog C, vesicle trafficking protein) | SID255354046 | -2.12 (active) | 5249 |
| PSTPIP1 (proline-serine-threonine phosphatase interacting protein 1) | SID255353994 | -1.07 | 4870 |
| AVEN (apoptosis and caspase activation inhibitor) | SID255359262 | 0.24 | 6020 |
| PRAMEF3 (retired record) | SID255365807 | 1.29 | 6122 |
| OR5D13 (olfactory receptor family 5 subfamily D member 13) | SID255365614 | -0.88 | 4607 |
| CIDEC (cell death inducing DFFA like effector c) | SID255359775 | -0.68 | 6530 |
| TMEM217 (transmembrane protein 217) | SID255364300 | 0.83 | 4901 |
| CATSPERG (catsper channel auxiliary subunit gamma) | SID255359608 | 0.09 | 4732 |
| CLN5 (CLN5 lysosomal BMP synthase) | SID255348966 | 0.8 | 5981 |
| CSF3R (colony stimulating factor 3 receptor) | SID255349119 | -1.03 | 3641 |
| GRHL2 (grainyhead like transcription factor 2) | SID255360605 | -1.13 | 5297 |
| NMNAT1 (nicotinamide nucleotide adenylyltransferase 1) | SID255360013 | -0.18 | 5936 |
| MIER2 (MIER family member 2) | SID255358065 | 0.17 | 5443 |
| BTG2 (BTG anti-proliferation factor 2) | SID255353310 | 0.68 | 5230 |
| SYT16 (synaptotagmin 16) | SID255361097 | -0.2 | 5768 |
| OR52N4 (olfactory receptor family 52 subfamily N member 4) | SID255365605 | -1.08 | 5206 |
| HSPA4 (heat shock protein family A (Hsp70) member 4) | SID255350334 | 0.6 | 4988 |
| DRICH1 (aspartate rich 1) | SID255357577 | -0.67 | 5956 |
| CCDC73 (coiled-coil domain containing 73) | SID255366003 | 2.7 (active) | 7199 |
| NIPA2 (NIPA magnesium transporter 2) | SID255360919 | -0.93 | 4942 |
| RBM12B (RNA binding motif protein 12B) | SID255365574 | 0.93 | 6104 |
| PCDHB3 (protocadherin beta 3) | SID255359018 | 3.04 (active) | 6819 |

5 neighbouring reagents already listed:
| Target gene | PubChem SID | migration robust z-score | nuclei per well, duplicate mean |
| --- | --- | --- | --- |
| PRAMEF3 (retired record) | SID255365807 | 1.29 | 6122 |
| OR5D13 (olfactory receptor family 5 subfamily D member 13) | SID255365614 | -0.88 | 4607 |
| CIDEC (cell death inducing DFFA like effector c) | SID255359775 | -0.68 | 6530 |
| TMEM217 (transmembrane protein 217) | SID255364300 | 0.83 | 4901 |
| CATSPERG (catsper channel auxiliary subunit gamma) | SID255359608 | 0.09 | 4732 |

Additional entries follow:
| Target gene | PubChem SID | migration robust z-score | nuclei per well, duplicate mean |
| --- | --- | --- | --- |
| TRIO (trio Rho guanine nucleotide exchange factor) | SID255352967 | 0.94 | 5309 |
| OR4C11 (olfactory receptor family 4 subfamily C member 11) | SID255364162 | 0.25 | 6093 |
| ARMH3 (armadillo like helical domain containing 3) | SID255360317 | -0.94 | 5113 |
| CCL25 (C-C motif chemokine ligand 25) | SID255352339 | 0.11 | 5958 |
| PHLDA3 (pleckstrin homology like domain family A member 3) | SID255356366 | 0.32 | 4988 |
| CBX4 (chromobox 4) | SID255353627 | -0.78 | 5574 |
| SRCIN1 (SRC kinase signaling inhibitor 1) | SID255360788 | -1.55 | 4282 |
| GPR82 (G protein-coupled receptor 82) | SID255356971 | 0.99 | 4980 |
| ARHGEF28 (Rho guanine nucleotide exchange factor 28) | SID255359887 | 0.24 | 6511 |
| LRRC42 (leucine rich repeat containing 42) | SID255362306 | -0.56 | 5848 |
| GRB2 (growth factor receptor bound protein 2) | SID255350024 | -0.65 | 5152 |
| TPX2 (TPX2 microtubule nucleation factor) | SID255355901 | -0.38 | 3125 |
| CCNB1IP1 (cyclin B1 interacting protein 1) | SID255359601 | 0.72 | 5644 |
| KHDC4 (KH domain containing 4, pre-mRNA splicing factor) | SID255355849 | 1.48 | 5246 |
| ZNRF2 (zinc and ring finger 2) | SID255364366 | 1.43 | 5216 |
| MAPK1 (mitogen-activated protein kinase 1) | SID255351811 | -3.81 | 2952 |
| ZNF568 (zinc finger protein 568) | SID255365344 | 0.01 | 6952 |
| MAP9 (microtubule associated protein 9) | SID255360541 | -0.24 | 6332 |
| MEF2A (myocyte enhancer factor 2A) | SID255350923 | 0.78 | 6926 |
| CDC16 (cell division cycle 16) | SID255353890 | 0.42 | 5820 |
| ATAD5 (ATPase family AAA domain containing 5) | SID255360563 | 0.1 | 5912 |
| EPCIP (exosomal polycystin 1 interacting protein) | SID255359055 | -0.04 | 4898 |
| GTF2H1 (general transcription factor IIH subunit 1) | SID255350090 | -0.26 | 5636 |
| HAO1 (hydroxyacid oxidase 1) | SID255357997 | -0.26 | 6780 |
| EPHA8 (EPH receptor A8) | SID255349525 | -1.58 | 3462 |
